Measurements from patent CN115677858A.
These are yes or no findings as the source states them, for the method shown. Some entries that bind do so weakly or less than the wild type. One block for each binder: values may come before it.

Chains of the proteins cited; added tags and fusions are not shown. Lines headed by an entry give the natural chain unless they say otherwise; changes in a name come on top.
UniProt Q9NZQ7: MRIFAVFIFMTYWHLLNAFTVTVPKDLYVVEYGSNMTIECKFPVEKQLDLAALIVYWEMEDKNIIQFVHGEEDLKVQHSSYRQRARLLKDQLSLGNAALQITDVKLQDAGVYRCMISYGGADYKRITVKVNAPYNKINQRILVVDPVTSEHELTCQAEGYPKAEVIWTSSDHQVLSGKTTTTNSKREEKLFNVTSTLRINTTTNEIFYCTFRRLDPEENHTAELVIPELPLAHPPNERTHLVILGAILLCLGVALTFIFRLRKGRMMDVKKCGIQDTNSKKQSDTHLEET

Legend:
[1] = target: 猴PD-L1胞外段 (SEQ ID No.23) (monkey); assay: ELISA, monkey PD-L1 extracellular domain coated, goat anti-human HRP
[2] = target: 人PD-L1全长 (SEQ ID No.22)，表达于CHO-K1细胞 (human) (UniProt Q9NZQ7); assay: stated in the discussion of the CD137/NFκB reporter assay with CHO-K1/hPD-L1 cells
[3] = target: 猴CD137胞外段 (SEQ ID No.20) (monkey); assay: ELISA, monkey CD137 extracellular domain coated, goat anti-human HRP

binding [1]: binds | binding [2]: binds
B1: 亲本抗体Anti-PD-L1 (中国专利申请CN 201910174374.8的抗人PD-L1单克隆抗体) (antibody, V domains shown)
VH: DVQLVESGGGLVQPGGSLRLSCTVSGIDLSSYDMTWVRQAPGKGLEYIGYISYVSRTYYADSVKGRFTISKDTSKNTVYLQMNSLRAEDTAVYYCARDRPDGAATNLWGQGTLVTVSS
VL: DIQMTQSPSTLSASVGDRVTITCQSSQNVYSNNRLSWYQQKPGKAPKLLIYWTSFLASGVPSRFSGSGSGTEFTLTISSLQPDDFATYYCAGGYSGNLYTFGQGTKLEIKR

binding [3]: binds
B2: 亲本抗体Anti-CD137 (中国专利申请CN 201911105611.1中的抗人CD137单克隆抗体Hanke10F4) (antibody, V domains shown)
VH: QVQLQESGPGLVKPSETLSLTCTVSGSSLTSYGVHWVRQPPGKGLEGLGVIWPGGSTNYNSALMSRVTISKDNSKSQVSLKMSSLTAADTAVYYCARVTGTWYFDVWGQGTTVTVSS
VL: DIQMTQSPSSLSASLGDRVTISCSASQGISNYLNWYQQKPDGTVKLLIYYTSTLHSGVPSRFSGSGSGTDYTLTISSLQPEDIATYYCQQYSKLPWTFGGGTKLEIK
